Counter-ions that a name gives are not always drawn. ± gives the standard deviation of the averaged measurements. This is one part of the list. Repeats are few or missing, and single values can be far off.
System: RAW 264.7
Assay: cell viability (MTT) relative to vehicle control; higher = more viable cells
Conditions: stimulus: HMGB1 5 ug/ml, 18 h
[1] = compound concentration: 1 ug/ml

## CN(C)CCC[C@@]1(c2ccc(F)cc2)OCc2cc(C#N)ccc21
Compound concentration: 3 uM
  cell viability: 104 ± 4.4%

## CN(C)CCC[C@@]1(c2ccc(F)cc2)OCc2cc(C#N)ccc21 [Escitalopram]
Compound concentration: 3 uM
  cell viability: 102 ± 14%

## CCCC(=O)Nc1ncnc2c1ncn2[C@@H]1O[C@@H]2COP(=O)(O)O[C@H]2[C@H]1OC(=O)CCC
Compound concentration: 3 uM
  cell viability: 110%

## CCCC(=O)Nc1ncnc2c1ncn2[C@@H]1O[C@@H]2COP(=O)(O)O[C@H]2[C@H]1OC(=O)CCC [Bucladesine sodium salt]
Compound concentration: 3 uM
  cell viability: 97.2%

## CCN1CCN(C(=O)N[C@@H](C(=O)N[C@@H]2C(=O)N3[C@@H]2SC(C)(C)[C@@H]3C(=O)O)c2ccccc2)C(=O)C1=O [Piperacillin sodium salt]
Compound concentration: 3 uM
  cell viability: 134%

## CCN1CCN(C(=O)N[C@@H](C(=O)N[C@@H]2C(=O)N3[C@@H]2SC(C)(C)[C@@H]3C(=O)O)c2ccccc2)C(=O)C1=O [Piperacillin]
Compound concentration: 3 uM
  cell viability: 80.7%

## CCN1CCN(C(=O)N[C@@H](C(=O)N[C@@H]2C(=O)N3[C@@H]2SC(C)(C)[C@@H]3C(=O)O)c2ccccc2)C(=O)C1=O
Compound concentration: 3 uM
  cell viability: 111%

## CC(=O)Oc1cccc(O)c1
Compound concentration: 3 uM
  cell viability: 102%

## CO[C@@H]1[C@@H](OC(N)=O)[C@@H](O)[C@H](Oc2ccc3c(O)c(NC(=O)c4ccc(O)c(CC=C(C)C)c4)c(=O)oc3c2C)OC1(C)C
Compound concentration: 3 uM
  cell viability: 103%

## CO[C@@H]1[C@@H](OC(N)=O)[C@@H](O)[C@H](Oc2ccc3c(O)c(NC(=O)c4ccc(O)c(CC=C(C)C)c4)c(=O)oc3c2C)OC1(C)C [Novobiocin sodium salt]
[1]
  cell viability: 90.4%
Compound concentration: 3 uM
  cell viability: 82.3%

## CO[C@@H]1[C@@H](OC(N)=O)[C@@H](O)[C@H](Oc2ccc3c(O)c(NC(=O)c4ccc(O)c(CC=C(C)C)c4)c(=O)oc3c2C)OC1(C)C [Novobiocin]
Compound concentration: 3 uM
  cell viability: 94.9%

## COc1ccc(NS(=O)(=O)c2ccc(N)cc2)nn1 [Sulfamethoxypyridazine]
Compound concentration: 3 uM
  cell viability: 115%

## COc1ccc(NS(=O)(=O)c2ccc(N)cc2)nn1
Compound concentration: 3 uM
  cell viability: 101%

## Nc1ccc(C(=O)NCC(=O)O)cc1
Compound concentration: 3 uM
  cell viability: 104%

## Nc1ccc(C(=O)NCC(=O)O)cc1 [Aminohippuric acid]
Compound concentration: 3 uM
  cell viability: 99.9%

## Cn1nnnc1SCC1=C(C(=O)O)N2C(=O)[C@@H](NC(=O)[C@H](O)c3ccccc3)[C@H]2SC1
Compound concentration: 3 uM
  cell viability: 104%

## Cn1nnnc1SCC1=C(C(=O)O)N2C(=O)[C@@H](NC(=O)[C@H](O)c3ccccc3)[C@H]2SC1 [Cefamandole sodium salt]
Compound concentration: 3 uM
  cell viability: 125%

## Cc1cnc(=O)[nH]c1N [5-Methylcytosine hydrochloride]
[1]
  cell viability: 95.9%

## CCC[C@H](N[C@@H](C)C(=O)N1[C@H](C(=O)O)C[C@@H]2CCCC[C@@H]21)C(=O)OCC [Perindopril]
Compound concentration: 3 uM
  cell viability: 93.6%

## CCC[C@H](N[C@@H](C)C(=O)N1[C@H](C(=O)O)C[C@@H]2CCCC[C@@H]21)C(=O)OCC
Compound concentration: 3 uM
  cell viability: 102%

## N=C(N)NCC1COC2(CCCCC2)O1 (stereo not given) [Guanadrel sulfate]
Compound concentration: 3 uM
  cell viability: 127%

## CC1(C)OC(=O)NC1=O
Compound concentration: 3 uM
  cell viability: 99%

## CC1(C)OC(=O)NC1=O [Dimethadione]
Compound concentration: 3 uM
  cell viability: 112%

## NCCCCCCCCCCN [1,10-Diaminodecane]
Compound concentration: 3 uM
  cell viability: 97.9%

## CN(C)CCc1c[nH]c2ccc(Cn3cncn3)cc12
Compound concentration: 3 uM
  cell viability: 104 ± 1.2%

## OCCN1CCN(CCCN2c3ccccc3Sc3ccc(Cl)cc32)CC1
Compound concentration: 3 uM
  cell viability: 97.3%

## OCCN1CCN(CCCN2c3ccccc3Sc3ccc(Cl)cc32)CC1 [Perphenazine]
Compound concentration: 3 uM
  cell viability: 96.5 ± 3.5%

## Nc1ccc(S(=O)(=O)c2ccc(N)cc2)cc1 [Dapsone]
Compound concentration: 3 uM
  cell viability: 97%

## Nc1ccc(S(=O)(=O)c2ccc(N)cc2)cc1
Compound concentration: 3 uM
  cell viability: 99.4%

## OC[C@H]1O[C@@H](Oc2ccc(O)cc2)[C@H](O)[C@@H](O)[C@@H]1O [Arbutin]
Compound concentration: 3 uM
  cell viability: 94.2%

## C=C1C[C@H]2[C@@H]3C=C(C)C4=CC(=O)CC[C@]4(C)[C@H]3CC[C@]2(C)[C@@]1(OC(C)=O)C(C)=O [Melengestrol acetate]
Compound concentration: 3 uM
  cell viability: 113%

## C=C1C[C@H]2[C@@H]3C=C(C)C4=CC(=O)CC[C@]4(C)[C@H]3CC[C@]2(C)[C@@]1(OC(C)=O)C(C)=O
Compound concentration: 3 uM
  cell viability: 121%

## C=C1C[C@H]2[C@@H]3C=C(C)C4=CC(=O)CC[C@]4(C)[C@H]3CC[C@]2(C)[C@@]1(OC(C)=O)C(C)=O [Melengestrol Acetate]
Compound concentration: 3 uM
  cell viability: 107%

## N[C@H]1C(O)O[C@H](CO)[C@@H](O)[C@@H]1O (stereo not given in full)
Compound concentration: 3 uM
  cell viability: 104%

## O=c1oc(Cl)c(Cl)c2ccccc12 [3,4-Dichloroisocoumarin]
Compound concentration: 3 uM
  cell viability: 95.3%

## Cc1ncc(CSSCc2cnc(C)c(O)c2CO)c(CO)c1O
Compound concentration: 3 uM
  cell viability: 103%

## CC(=O)Oc1cccc2c1C(=O)c1c(OC(C)=O)cc(C(=O)O)cc1C2=O [Diacerein]
Compound concentration: 3 uM
  cell viability: 93.2%

## CC(=O)Oc1cccc2c1C(=O)c1c(OC(C)=O)cc(C(=O)O)cc1C2=O
Compound concentration: 3 uM
  cell viability: 110%

## N=C(N)NC(=N)N1CCOCC1 [Moroxydine HCl]
Compound concentration: 3 uM
  cell viability: 112%

## N=C(N)NC(=N)N1CCOCC1
Compound concentration: 3 uM
  cell viability: 111%

## COc1nc(C)nc(Cl)c1NC1=NCCN1
Compound concentration: 3 uM
  cell viability: 90.4%

## COc1nc(C)nc(Cl)c1NC1=NCCN1 [Moxonidine]
Compound concentration: 3 uM
  cell viability: 99.1%

## COc1nc(C)nc(Cl)c1NC1=NCCN1 [Moxonidine hydrochloride]
Compound concentration: 3 uM
  cell viability: 105%

## COc1ccc2c(C)cc(=O)oc2c1OC [7,8-Dimethoxy-4-methylcoumarin]
[1]
  cell viability: 94.3%

## COc1cccc(-c2cc(=O)c3ccc(O)cc3o2)c1 [7-Hydroxy-3'-methoxyflavone]
[1]
  cell viability: 96.3%

## N#CC(C#N)=C(N)/C(C#N)=C/c1ccc(O)cc1 [Tyrphostin AG 112]
Compound concentration: 3 uM
  cell viability: 111%

## NCCS(=O)(=O)O [Taurine]
Compound concentration: 3 uM
  cell viability: 114%

## NCCS(=O)(=O)O
Compound concentration: 3 uM
  cell viability: 107%

## COc1cc2nc(N3CCN(C(=O)c4ccco4)CC3)nc(N)c2cc1OC [Prazosin hydrochloride]
[1]
  cell viability: 103%
Compound concentration: 3 uM
  cell viability: 104 ± 6.3%

## COc1cc2nc(N3CCN(C(=O)c4ccco4)CC3)nc(N)c2cc1OC
Compound concentration: 3 uM
  cell viability: 109%

## COc1cc2nc(N3CCN(C(=O)c4ccco4)CC3)nc(N)c2cc1OC [Prazosin]
Compound concentration: 3 uM
  cell viability: 98.3 ± 3.8%

## CCn1cc(C(=O)O)c(=O)c2cnc(N3CCNCC3)nc21 [Pipemidic acid]
Compound concentration: 3 uM
  cell viability: 106%

## CCn1cc(C(=O)O)c(=O)c2cnc(N3CCNCC3)nc21
Compound concentration: 3 uM
  cell viability: 108%

## O=c1c(O)c(-c2cc(O)c(O)c(O)c2)oc2cc(O)cc(O)c12 [Myricetin]
[1]
  cell viability: 90.7%
Compound concentration: 3 uM
  cell viability: 108%

## CC(=O)N[C@@H](CC(=O)N[C@@H](CCC(=O)O)C(=O)O)C(=O)O [Spaglumic acid]
Compound concentration: 3 uM
  cell viability: 89%

## CC(=O)N[C@@H](CC(=O)N[C@@H](CCC(=O)O)C(=O)O)C(=O)O
Compound concentration: 3 uM
  cell viability: 111%

## c1ccc(C(NCCNC(c2ccccc2)c2ccccc2)c2ccccc2)cc1
Compound concentration: 3 uM
  cell viability: 109%

## COc1ccc(-c2cc(=O)c3c(O)cc(O)cc3o2)cc1 [Acacetin]
[1]
  cell viability: 111%

## Cc1ccc(S(=O)(=O)NC(=O)NN2CC3CCCC3C2)cc1 (stereo not given) [Gliclazide]
Compound concentration: 3 uM
  cell viability: 92.1 ± 17%

## Cc1ccc(S(=O)(=O)NC(=O)NN2CC3CCCC3C2)cc1 (stereo not given)
Compound concentration: 3 uM
  cell viability: 110%

## COc1ccc(-c2oc3c(CC=C(C)C)c(O[C@@H]4O[C@H](CO)[C@@H](O)[C@H](O)[C@H]4O)cc(O)c3c(=O)c2O[C@@H]2O[C@@H](C)[C@H](O)[C@@H](O)[C@H]2O)cc1 [Icarrin]
[1]
  cell viability: 95%

## COc1ccc(-c2oc3c(CC=C(C)C)c(O[C@@H]4O[C@H](CO)[C@@H](O)[C@H](O)[C@H]4O)cc(O)c3c(=O)c2O[C@@H]2O[C@@H](C)[C@H](O)[C@@H](O)[C@H]2O)cc1
Compound concentration: 3 uM
  cell viability: 87.9%

## C[C@H]1[C@@H](O)O[C@@H]2O[C@@]3(C)CC[C@H]4[C@H](C)CC[C@@H]1[C@@]24OO3
Compound concentration: 3 uM
  cell viability: 79.6%

## CCn1cc(C(=O)O)c(=O)c2ccc(C)nc21
Compound concentration: 3 uM
  cell viability: 122%

## CCn1cc(C(=O)O)c(=O)c2ccc(C)nc21 [Nalidixic acid sodium]
Compound concentration: 3 uM
  cell viability: 108%

## CCn1cc(C(=O)O)c(=O)c2ccc(C)nc21 [Nalidixic acid sodium salt]
Compound concentration: 3 uM
  cell viability: 110%

## O=C(O)CCC(=O)OC[C@@H](NC(=O)C(Cl)Cl)[C@H](O)c1ccc([N+](=O)[O-])cc1
Compound concentration: 3 uM
  cell viability: 109%

## Cc1cccc(/C=C/c2ccccc2)n1
Compound concentration: 3 uM
  cell viability: 114%

## COc1ccc2cc(CCC(C)=O)ccc2c1 [Nabumetone]
Compound concentration: 3 uM
  cell viability: 97.1 ± 6.4%

## CCCCCC(C)N (stereo not given)
Compound concentration: 3 uM
  cell viability: 102%

## C#CCN(C)Cc1ccccc1 [Pargyline hydrochloride]
Compound concentration: 3 uM
  cell viability: 105 ± 5.4%

## C#CCN(C)Cc1ccccc1
Compound concentration: 3 uM
  cell viability: 108%

## O=c1[nH]c2ccccc2c2ccccc12 [6(5H)-Phenanthridinone]
Compound concentration: 3 uM
  cell viability: 108%

## Oc1c(I)cc(I)c2cccnc12
Compound concentration: 3 uM
  cell viability: 104%

## O=C(CCCN1CC=C(n2c(=O)[nH]c3ccccc32)CC1)c1ccc(F)cc1
Compound concentration: 3 uM
  cell viability: 102 ± 7.9%

## O=C(CCCN1CC=C(n2c(=O)[nH]c3ccccc32)CC1)c1ccc(F)cc1 [Droperidol]
Compound concentration: 3 uM
  cell viability: 105 ± 11%

## CCN(CC)CCNC(=O)c1cc(S(C)(=O)=O)ccc1OC [Tiapride hydrochloride]
Compound concentration: 3 uM
  cell viability: 109 ± 9%

## CCN(CC)CCNC(=O)c1cc(S(C)(=O)=O)ccc1OC
Compound concentration: 3 uM
  cell viability: 103%

## CC(C)N1CCN(c2ccc(OCC3COC(Cn4cncn4)(c4ccc(Cl)cc4Cl)O3)cc2)CC1 (stereo not given) [Terconazole]
Compound concentration: 3 uM
  cell viability: 96%

## CN1C2CCCC1CC(NC(=O)c1nn(C)c3ccccc13)C2 (stereo not given) [Granisetron]
Compound concentration: 3 uM
  cell viability: 111 ± 18%

## CN1C2CCCC1CC(NC(=O)c1nn(C)c3ccccc13)C2 (stereo not given)
Compound concentration: 3 uM
  cell viability: 94%

## CN1C2CCCC1CC(NC(=O)c1nn(C)c3ccccc13)C2 (stereo not given) [Granisetron hydrochloride]
Compound concentration: 3 uM
  cell viability: 115%

## CCN(CC)CC#CCOC(=O)C(O)(c1ccccc1)C1CCCCC1 (stereo not given) [Oxybutynin chloride]
Compound concentration: 3 uM
  cell viability: 103%

## CCN(CC)CC#CCOC(=O)C(O)(c1ccccc1)C1CCCCC1 (stereo not given)
Compound concentration: 3 uM
  cell viability: 105%

## CCN(CC)CC#CCOC(=O)C(O)(c1ccccc1)C1CCCCC1 (stereo not given) [Oxybutynin Chloride]
Compound concentration: 3 uM
  cell viability: 103%

## Cc1ncc([N+](=O)[O-])n1CCO [Metronidazole]
Compound concentration: 3 uM
  cell viability: 98.2 ± 6.8%

## Cc1ncc([N+](=O)[O-])n1CCO
Compound concentration: 3 uM
  cell viability: 101 ± 8.8%

— the supplement of paper PMC3682954
